This passage reports binding results from article PMC3989272.

The chains behind the UniProt entries cited, without tags or fusion partners. Where a name states a change or a piece, a line headed by the entry shows the natural chain unless it says otherwise.
UniProt P29476: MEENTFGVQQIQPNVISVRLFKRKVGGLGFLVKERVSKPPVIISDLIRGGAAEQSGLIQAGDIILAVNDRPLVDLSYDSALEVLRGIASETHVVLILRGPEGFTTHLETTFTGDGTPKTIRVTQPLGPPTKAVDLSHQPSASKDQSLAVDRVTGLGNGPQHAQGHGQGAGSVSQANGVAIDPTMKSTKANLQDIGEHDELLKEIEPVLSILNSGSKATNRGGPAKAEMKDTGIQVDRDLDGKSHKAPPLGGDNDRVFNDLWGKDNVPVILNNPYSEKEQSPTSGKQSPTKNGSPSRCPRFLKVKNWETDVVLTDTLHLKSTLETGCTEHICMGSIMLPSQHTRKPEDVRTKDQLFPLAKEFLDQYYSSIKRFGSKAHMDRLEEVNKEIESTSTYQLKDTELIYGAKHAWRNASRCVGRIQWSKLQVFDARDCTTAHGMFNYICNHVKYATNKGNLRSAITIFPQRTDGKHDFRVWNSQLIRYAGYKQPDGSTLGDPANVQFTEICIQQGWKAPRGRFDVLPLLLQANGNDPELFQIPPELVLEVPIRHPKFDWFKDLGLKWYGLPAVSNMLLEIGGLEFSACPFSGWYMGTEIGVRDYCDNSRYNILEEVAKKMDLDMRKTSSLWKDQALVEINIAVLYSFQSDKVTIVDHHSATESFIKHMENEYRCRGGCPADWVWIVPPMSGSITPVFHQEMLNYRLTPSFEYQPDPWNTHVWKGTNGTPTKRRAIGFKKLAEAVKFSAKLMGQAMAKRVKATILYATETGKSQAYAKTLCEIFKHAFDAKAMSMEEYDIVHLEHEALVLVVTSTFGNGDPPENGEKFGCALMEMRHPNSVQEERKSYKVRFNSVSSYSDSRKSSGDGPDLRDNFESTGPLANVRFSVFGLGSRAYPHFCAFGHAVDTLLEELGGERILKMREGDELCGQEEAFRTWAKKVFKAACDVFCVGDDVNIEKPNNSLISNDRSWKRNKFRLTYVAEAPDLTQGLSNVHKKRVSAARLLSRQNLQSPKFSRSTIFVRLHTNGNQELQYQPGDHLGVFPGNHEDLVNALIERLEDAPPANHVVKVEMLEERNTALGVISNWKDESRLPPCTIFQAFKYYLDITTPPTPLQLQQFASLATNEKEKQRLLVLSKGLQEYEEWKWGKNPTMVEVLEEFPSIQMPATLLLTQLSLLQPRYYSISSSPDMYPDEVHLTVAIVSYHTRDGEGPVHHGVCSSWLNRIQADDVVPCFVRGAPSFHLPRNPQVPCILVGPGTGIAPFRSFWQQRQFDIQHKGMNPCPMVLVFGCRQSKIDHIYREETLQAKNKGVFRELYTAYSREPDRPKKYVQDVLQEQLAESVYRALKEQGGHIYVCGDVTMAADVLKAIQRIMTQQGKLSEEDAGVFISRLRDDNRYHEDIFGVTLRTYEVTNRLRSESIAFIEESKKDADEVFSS
UniProt Q62101: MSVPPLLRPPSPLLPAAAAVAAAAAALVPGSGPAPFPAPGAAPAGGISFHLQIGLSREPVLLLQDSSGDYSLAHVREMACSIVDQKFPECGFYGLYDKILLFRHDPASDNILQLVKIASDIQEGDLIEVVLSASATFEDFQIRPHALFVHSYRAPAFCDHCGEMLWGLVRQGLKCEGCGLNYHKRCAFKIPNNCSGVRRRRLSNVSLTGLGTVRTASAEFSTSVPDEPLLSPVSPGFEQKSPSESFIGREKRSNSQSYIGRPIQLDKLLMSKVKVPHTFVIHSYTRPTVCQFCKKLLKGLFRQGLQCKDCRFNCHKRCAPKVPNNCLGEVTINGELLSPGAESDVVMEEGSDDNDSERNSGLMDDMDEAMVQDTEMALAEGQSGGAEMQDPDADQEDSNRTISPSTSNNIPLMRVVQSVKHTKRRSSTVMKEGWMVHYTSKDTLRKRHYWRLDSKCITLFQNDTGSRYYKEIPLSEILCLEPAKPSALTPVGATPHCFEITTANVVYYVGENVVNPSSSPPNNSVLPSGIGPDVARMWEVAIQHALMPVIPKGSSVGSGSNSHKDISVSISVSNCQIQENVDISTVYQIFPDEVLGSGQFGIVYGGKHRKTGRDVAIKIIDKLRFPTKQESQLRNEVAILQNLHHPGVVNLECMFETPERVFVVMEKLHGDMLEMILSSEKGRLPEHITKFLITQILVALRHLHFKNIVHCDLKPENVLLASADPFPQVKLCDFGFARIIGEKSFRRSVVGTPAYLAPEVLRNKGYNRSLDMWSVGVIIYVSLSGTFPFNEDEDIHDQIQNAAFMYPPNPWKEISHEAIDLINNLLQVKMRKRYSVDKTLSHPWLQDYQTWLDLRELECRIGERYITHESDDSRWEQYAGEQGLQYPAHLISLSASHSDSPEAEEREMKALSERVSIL

These are yes or no findings as the source states them, for the method shown. Binding seen in cells or lysates may run through a third protein. Binding can be weak; no strength is given.

In this test the target is Myc-tagged wild-type rat nNOS (rat) (UniProt P29476). Put plainly: co-IP; HEK293T cells cotransfected with Myc-nNOS and GFP-PKD1 forms, untreated or treated with 200 nM PDBu for 15 min; RIPA lysates, immunoprecipitation with anti-Myc antibody 4 h at 4°C, immunoblot with anti-GFP and anti-Myc. A general note: In western blotting, separated proteins are transferred to a membrane and probed.

For the substance “GFP-PKD1 deletion mutant lacking the PH-domain (from UniProt Q62101) (enzyme)”, the binding entry is listed as “no binding”. In the case of “GFP-PKD1 deletion mutant lacking the CRD domain (from UniProt Q62101) (enzyme)” it was “binds”.
